Assay results reported in US7754738B2, “Pyrazole and pyrrole carboxamide insecticides” (E.I. du Pont de Nemours and Company, priority 2002, dated 2010).
Some entries share one result that the patent states for a list of compounds.

Test system: fall armyworm (Spodoptera frugiperda)
Test: Test E: control of fall armyworm, microtiter plate with treated diet
Assay type: in vivo
Conditions: 25 μL of 1050 μM (or lower) compound per well on 175 μL diet; infested with eggs; 6 days at 27° C.

## Cc1cccc([N+](=O)[O-])c1NC(=O)c1cc(C(F)(F)F)nn1-c1ncccc1Cl [Compound 20]
  live insect killed (fall armyworm control): ≥ 90%
